# In the supplement of paper PMC8728848:
# Some of the results follow.
# B1: CD72 ectodomain (Homo sapiens), P21854 (protein)
# chain: RYLQVSQQLQQTNRVLEVTNSSLRQQLRLKITQLGQSAEDLQGSRRELAQSQEALQVEQRAHQAAEGQLQACQADRQKTKETLQSEEQQRRALEQKLSNMENRLKPFFTCGSADTCCPSGWIMHQKSCFYISLTSKNWQESQKQCETLSSKLATFSEIYPQSHSYYFLNSLLPNGGSGNSYWTGLSSNKDWKLTDDTQRTRTYAQSSKCNKVHKTWSWWTLESESCRSSLPYICEMTAFRFPD
# Experiments:
# Test in all cases: glycan array binding signal (z-score within array); higher = stronger binding
# Conditions in all cases: glycan notation: IUPAC condensed, linker removed
# [1] = target: Gal(b1-3)GlcNAc(b1-3)Gal(b1-4)GlcNAc(b1-6)[Gal(b1-3)GlcNAc(b1-3)]Gal(b1-4)Glc
# Outline: (§1)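 The binding signal is a Z-score computed within each array. Data were drawn from 3228 arrays in the Consortium for Functional Glycomics database, restricted to those with a known protein sequence. Scores were averaged over arrays of the same protein sequence at different concentrations or buffers, and over linkers, and negative values can be taken as non-binding.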
# [2] = target: Gal(b1-3)GlcNAc(b1-3)Gal(b1-4)[Fuc(a1-3)]GlcNAc(b1-6)[Gal(b1-3)GlcNAc(b1-3)]Gal(b1-4)Glc
# Outline: as §1
# [3] = target: Gal(b1-3)GlcNAc(b1-3)GalNAc
# Outline: as §1
# [4] = target: Gal(b1-3)GlcNAc(b1-6)Gal(b1-4)GlcNAc
# Outline: as §1
# [5] = target: Gal(b1-3)[Fuc(a1-4)]GlcNAc
# Outline: as §1
# [6] = target: Gal(b1-3)[Fuc(a1-4)]GlcNAc(b1-2)Man(a1-3)[Gal(b1-3)[Fuc(a1-4)]GlcNAc(b1-2)Man(a1-6)]Man(b1-4)GlcNAc(b1-4)GlcNAc
# Outline: as §1
# [7] = target: Gal(b1-3)[Fuc(a1-4)]GlcNAc(b1-2)Man(a1-3)[Gal(b1-3)[Fuc(a1-4)]GlcNAc(b1-2)Man(a1-6)]Man(b1-4)GlcNAc(b1-4)[Fuc(a1-6)]GlcNAc
# Outline: as §1
# [8] = target: Gal(b1-3)[Fuc(a1-4)]GlcNAc(b1-3)Gal(b1-3)[Fuc(a1-4)]GlcNAc
# Outline: as §1
# [9] = target: Gal(b1-3)[Fuc(a1-4)]GlcNAc(b1-3)Gal(b1-4)GlcNAc
# Outline: as §1
# [10] = target: Gal(b1-3)[Fuc(a1-4)]GlcNAc(b1-3)Gal(b1-4)[Fuc(a1-3)]GlcNAc
# Outline: as §1
# [11] = target: Gal(b1-3)[GlcNAc(b1-6)]GalNAc
# Outline: as §1
# [12] = target: Gal(b1-3)[Neu5Ac(a2-6)]GalNAc
# Outline: as §1
# [13] = target: Gal(b1-3)[Neu5Ac(a2-6)]GlcNAc(b1-6)Gal(b1-4)Glc
# Outline: as §1
# [14] = target: Gal(b1-3)[Neu5Ac(b2-6)]GalNAc
# Outline: as §1
# [15] = target: Gal(b1-4)Gal
# Outline: as §1
# [16] = target: Gal(b1-4)GalNAc(a1-3)[Fuc(a1-2)]Gal(b1-4)GlcNAc
# Outline: as §1
# [17] = target: Gal(b1-4)GalNAc(b1-3)[Fuc(a1-2)]Gal(b1-4)GlcNAc
# Outline: as §1
# [18] = target: Gal(b1-4)Glc
# Outline: as §1
# [19] = target: Gal(b1-4)Glc6S
# Outline: as §1
# [20] = target: Gal(b1-4)GlcNAc
# Outline: as §1
# [21] = target: Gal(b1-4)GlcNAc(a1-6)Gal(b1-4)GlcNAc
# Outline: as §1
# [22] = target: Gal(b1-4)GlcNAc(b1-2)Man
# Outline: as §1
# [23] = target: Gal(b1-4)GlcNAc(b1-2)Man(a1-3)Man(b1-4)GlcNAc(b1-4)GlcNAc
# Outline: as §1
# [24] = target: Gal(b1-4)GlcNAc(b1-2)Man(a1-3)[Gal(b1-4)GlcNAc(b1-2)Man(a1-6)]Man(b1-4)GlcNAc(b1-4)GlcNAc
# Outline: as §1
# [25] = target: Gal(b1-4)GlcNAc(b1-2)Man(a1-3)[Gal(b1-4)GlcNAc(b1-2)Man(a1-6)]Man(b1-4)GlcNAc(b1-4)[Fuc(a1-6)]GlcNAc
# Outline: as §1
# [26] = target: Gal(b1-4)GlcNAc(b1-2)Man(a1-3)[Gal(b1-4)GlcNAc(b1-2)][GlcNAc(b1-4)]Man(b1-4)GlcNAc(b1-4)GlcNAc
# Outline: as §1
# [27] = target: Gal(b1-4)GlcNAc(b1-2)Man(a1-3)[GlcNAc(b1-2)Man(a1-6)]Man(b1-4)GlcNAc(b1-4)GlcNAc
# Outline: as §1
# [28] = target: Gal(b1-4)GlcNAc(b1-2)Man(a1-3)[Man(a1-6)]Man(b1-4)GlcNAc(b1-4)GlcNAc
# Outline: as §1
# [29] = target: Gal(b1-4)GlcNAc(b1-2)Man(a1-6)Man(b1-4)GlcNAc(b1-4)GlcNAc
# Outline: as §1
# [30] = target: Gal(b1-4)GlcNAc(b1-2)Man(a1-6)[GlcNAc(b1-2)Man(a1-3)]Man(b1-4)GlcNAc(b1-4)GlcNAc
# Outline: as §1
# [31] = target: Gal(b1-4)GlcNAc(b1-2)Man(a1-6)[Man(a1-3)]Man(b1-4)GlcNAc(b1-4)GlcNAc
# Outline: as §1
# [32] = target: Gal(b1-4)GlcNAc(b1-2)[Gal(b1-4)GlcNAc(b1-4)]Man(a1-3)[Gal(b1-4)GlcNAc(b1-2)Man(a1-6)]Man(b1-4)GlcNAc(b1-4)GlcNAc
# Outline: as §1
# [33] = target: Gal(b1-4)GlcNAc(b1-2)[Gal(b1-4)GlcNAc(b1-4)]Man(a1-3)[Gal(b1-4)GlcNAc(b1-2)[Gal(b1-4)GlcNAc(b1-6)]Man(a1-6)]Man(b1-4)GlcNAc(b1-4)GlcNAc
# Outline: as §1
# [34] = target: Gal(b1-4)GlcNAc(b1-2)[Gal(b1-4)GlcNAc(b1-4)]Man(a1-3)[GlcNAc(b1-4)][Gal(b1-4)GlcNAc(b1-2)Man(a1-6)]Man(b1-4)GlcNAc(b1-4)GlcNAc
# Outline: as §1
# [35] = target: Gal(b1-4)GlcNAc(b1-2)[Gal(b1-4)GlcNAc(b1-4)]Man(a1-3)[GlcNAc(b1-4)][Gal(b1-4)GlcNAc(b1-2)[Gal(b1-4)GlcNAc(b1-6)]Man(a1-6)]Man(b1-4)GlcNAc(b1-4)GlcNAc
# Outline: as §1
# [36] = target: Gal(b1-4)GlcNAc(b1-2)[Gal(b1-4)GlcNAc(b1-6)]Man(a1-6)[Gal(b1-4)GlcNAc(b1-2)Man(a1-3)]Man(b1-4)GlcNAc(b1-4)GlcNAc
# Outline: as §1
# [37] = target: Gal(b1-4)GlcNAc(b1-2)[Gal(b1-4)GlcNAc(b1-6)]Man(a1-6)[GlcNAc(b1-4)][Gal(b1-4)GlcNAc(b1-2)Man(a1-3)]Man(b1-4)GlcNAc(b1-4)GlcNAc
# Outline: as §1
# [38] = target: Gal(b1-4)GlcNAc(b1-3)Gal(b1-3)GlcNAc
# Outline: as §1
binder,measurement,setting,value
B1,glycan array binding signal (z-score),[1],0.052
same,glycan array binding signal (z-score),[2],2.26
same,glycan array binding signal (z-score),[3],-0.526
same,glycan array binding signal (z-score),[4],-0.876
same,glycan array binding signal (z-score),[5],-1.61
same,glycan array binding signal (z-score),[6],0.257
same,glycan array binding signal (z-score),[7],-0.57
same,glycan array binding signal (z-score),[8],0.642
same,glycan array binding signal (z-score),[9],-0.061
same,glycan array binding signal (z-score),[10],-1.62
same,glycan array binding signal (z-score),[11],-0.353
same,glycan array binding signal (z-score),[12],1.43
same,glycan array binding signal (z-score),[13],-0.084
same,glycan array binding signal (z-score),[14],0.55
same,glycan array binding signal (z-score),[15],-0.485
same,glycan array binding signal (z-score),[16],-0.011
same,glycan array binding signal (z-score),[17],-0.019
same,glycan array binding signal (z-score),[18],-1.2
same,glycan array binding signal (z-score),[19],-0.067
same,glycan array binding signal (z-score),[20],0.258
same,glycan array binding signal (z-score),[21],-0.72
same,glycan array binding signal (z-score),[22],0.51
same,glycan array binding signal (z-score),[23],1.39
same,glycan array binding signal (z-score),[24],0.293
same,glycan array binding signal (z-score),[25],1.17
same,glycan array binding signal (z-score),[26],1.05
same,glycan array binding signal (z-score),[27],0.532
same,glycan array binding signal (z-score),[28],1.3
same,glycan array binding signal (z-score),[29],1.33
same,glycan array binding signal (z-score),[30],0.352
same,glycan array binding signal (z-score),[31],0.823
same,glycan array binding signal (z-score),[32],-0.421
same,glycan array binding signal (z-score),[33],-0.561
same,glycan array binding signal (z-score),[34],0.003
same,glycan array binding signal (z-score),[35],-1.77
same,glycan array binding signal (z-score),[36],0.172
same,glycan array binding signal (z-score),[37],-0.655
same,glycan array binding signal (z-score),[38],-0.795

# Retrieved one by one from the entries so far (three):
binder,measurement,setting,value
B1,glycan array binding signal (z-score),[4],-0.876
same,glycan array binding signal (z-score),[32],-0.421
same,glycan array binding signal (z-score),[3],-0.526
